No constants are given. Whether binding was seen depends on the method and setting. Binding seen in cells or lysates may run through a third protein. Some entries that bind do so weakly or less than the wild type.
Experiments:
Assay in all cases: co-IP; lysates of primary mouse hepatocytes, with or without TGF-β1 (10 ng/mL) for 6 h; incubated with antibodies against Smad3, p-Smad3 or p-Smad2 overnight, protein A/G beads for 2 h; immunoblot with anti-Ets-1
[1] = target: mothers against decapentaplegic homolog 3 (Smad3) (mouse (endogenous in primary hepatocytes)) (UniProt Q8BUN5)
[2] = target: phosphorylated Smad2 (p-Smad2) (mouse (endogenous in primary hepatocytes)) (UniProt Q62432)
[3] = target: phosphorylated Smad3 (p-Smad3) (mouse (endogenous in primary hepatocytes)) (UniProt Q8BUN5)

By UniProt entry, the sequences of proteins in these tests, tags left out.
UniProt Q8BUN5: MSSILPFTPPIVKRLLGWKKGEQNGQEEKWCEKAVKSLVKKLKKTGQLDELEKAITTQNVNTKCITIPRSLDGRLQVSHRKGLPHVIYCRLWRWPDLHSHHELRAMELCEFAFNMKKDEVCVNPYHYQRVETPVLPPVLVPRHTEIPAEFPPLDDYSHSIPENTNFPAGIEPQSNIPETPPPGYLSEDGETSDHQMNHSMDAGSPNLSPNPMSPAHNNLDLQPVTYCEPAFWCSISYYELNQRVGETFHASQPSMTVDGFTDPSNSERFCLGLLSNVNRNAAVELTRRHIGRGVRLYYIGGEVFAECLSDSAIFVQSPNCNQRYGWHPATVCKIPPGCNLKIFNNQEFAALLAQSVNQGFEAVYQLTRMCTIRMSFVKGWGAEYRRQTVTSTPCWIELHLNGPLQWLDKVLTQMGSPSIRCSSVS
UniProt Q62432: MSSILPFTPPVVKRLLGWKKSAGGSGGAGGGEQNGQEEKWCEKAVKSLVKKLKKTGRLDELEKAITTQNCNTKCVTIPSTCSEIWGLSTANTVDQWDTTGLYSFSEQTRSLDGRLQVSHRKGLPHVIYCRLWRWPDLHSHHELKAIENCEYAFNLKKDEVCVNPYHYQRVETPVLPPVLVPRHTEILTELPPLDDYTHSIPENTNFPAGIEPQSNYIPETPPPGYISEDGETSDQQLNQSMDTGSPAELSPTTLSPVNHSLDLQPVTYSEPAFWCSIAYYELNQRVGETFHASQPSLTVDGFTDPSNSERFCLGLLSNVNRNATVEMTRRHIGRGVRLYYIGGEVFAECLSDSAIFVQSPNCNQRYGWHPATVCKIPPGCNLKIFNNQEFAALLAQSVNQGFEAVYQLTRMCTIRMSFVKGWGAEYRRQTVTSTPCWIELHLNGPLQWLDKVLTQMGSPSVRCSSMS

B1: v-ets avian erythroblastosis virus E26 oncogene homolog 1 (Ets-1) (protein, UniProt P27577 1-440)
chain: MKAAVDLKPTLTIIKTEKVDLELFPSPDMECADVPLLTPSSKEMMSQALKATFSGFTKEQQRLGIPKDPRQWTETHVRDWVMWAVNEFSLKGVDFQKFCMSGAALCALGKECFLELAPDFVGDILWEHLEILQKEDVKPYQVNGANPTYPESCYTSDYFISYGIEHAQCVPPSEFSEPSFITESYQTLHPISSEELLSLKYENDYPSVILQDPLQTDTLQTDYFAIKQEVLTPDNMCLGRASRGKLGGQDSFESVESYDSCDRLTQSWSSQSSFNSLQRVPSYDSFDYEDYPAALPNHKPKGTFKDYVRDRADLNKDKPVIPAAALAGYTGSGPIQLWQFLLELLTDKSCQSFISWTGDGWEFKLSDPDEVARRWGKRKNKPKMNYEKLSRGLRYYYDKNIIHKTAGKRYVYRFVCDLQSLLGYTPEELHAMLDVKPDAD
[1]
  binding: binds
[2]
  binding: no binding
[3]
  binding: binds
